In publication doi:10.1101/2025.11.26.690747:
Where two headings read alike, the source gives them in different places. Results are given in words; binding and its absence hold for the method and conditions named. In cells and extracts the contact can be indirect. These calls come from enrichment with a bait or labelling near it, and not all partners need be listed. Where a sequence is shown, tags or fusion partners need not be part of it.

What was measured:
[1] = target: T1, PfBDP1-HA-DD (P. falciparum) (UniProt Q8IJ72); assay: affinity purification with mass spectrometry
T1 sequence: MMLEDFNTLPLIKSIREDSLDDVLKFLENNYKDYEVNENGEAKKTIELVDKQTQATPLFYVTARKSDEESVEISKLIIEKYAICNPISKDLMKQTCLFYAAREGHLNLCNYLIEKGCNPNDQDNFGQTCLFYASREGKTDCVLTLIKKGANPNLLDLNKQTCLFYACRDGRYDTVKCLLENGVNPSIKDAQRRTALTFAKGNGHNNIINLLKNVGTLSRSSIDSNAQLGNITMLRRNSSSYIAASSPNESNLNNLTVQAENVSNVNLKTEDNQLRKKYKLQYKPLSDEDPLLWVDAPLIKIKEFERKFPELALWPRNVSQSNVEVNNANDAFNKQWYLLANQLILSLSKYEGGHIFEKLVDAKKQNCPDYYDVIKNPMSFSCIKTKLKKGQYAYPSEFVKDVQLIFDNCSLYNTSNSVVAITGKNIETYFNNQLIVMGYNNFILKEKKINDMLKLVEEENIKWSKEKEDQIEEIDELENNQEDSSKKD

[2] = target: T1, PfBDP1-HA-DD (P. falciparum); assay: affinity purification with mass spectrometry; remark: listed apart in the source

Row | Molecule | binding [1] | binding [2]
1 | Chromodomain Protein 1 (PfCHD1) (from UniProt Q8IJG6 1-3328) | binds | binds
2 | PfAP2-I (endogenous, found by mass spectrometry) (P. falciparum (endogenous in parasites)) | – | binds
3 | PfBDP2 (protein, UniProt Q8I5S4 1-1088) MNDYNNINNQLLIDTSSGMEHITIENNNNCIINNIDNIDYNNKTTNHIIKNNDSIISYKNNNMSSINNLIDIDNNGTSINNEFQQKNYNNNNIISDNKNMNYFSSFSNENTIDDNGNDTNYMNYDDNMNNSEYTNNHNNNHNNNHNNINSNDHNDDNLKNNNQCNSMNITDEYMSDNNISKNNSTSNILEYHINDNNNNNNINFIKKEEIIKNMDDLFIKNVNDIRSFERGILNLTQEEFIYISNKIHFLGFRFIEIPCVKTKNEKRNTYTAISKRHLNEIKNLSCSLSNSIYDAGKRKSKKTFDPFYSKAEFDSKGTYAQHDQKDTKDTNKKKAQTNNNVNNNNNNDYVNEKDIKNANIKEESHNLNSTKGNNKGTNNTYHNNNSIKSQQESDKLTSTSKGVKRSASNKFDDFDNKHNNKNVHGGSTNLGTNNSTPTHNNSNTGKGKGSKNTNSNNKKINEKESMKKRQKTNSYNEDNLMDEYEQHKKTYKKKIYRTKNPWKNYCFKILHKLKKKEIACWFLKPVNPELDGIPNYFNVIKNPMDFETIENKLINNKYNNPFEWQHDVRQIFFNAFTYHKVKNCVWNDAYKLAKEFDKLIKQGNDVKNILKDCTKNINSVYFNMKQYNDLIEHTNNTNNIINHNNISKTITNTSSDDHSGSLSSSSSSSSSISSSNYDDEAYDNVSSVNYNKRDSQMHKNVHGKKSSMYMTSASTNTLKNNLNSNQIYFPHGKNKKNEKMNKSSKYSINNNNNNNNISNKKNIRDNIKNKKDVNSNTLDDDDFEPPNVGTIPEPPGIQKIGINDKGLNNYQVNLLFKNFKRLAPNQRKAALEIIQDDLGILAENHMFDRFFTFDTDLLSIEKQKRIFLYINHMGRINLEHYKSSLISANKVNNSSFSKGKMGQKIVHNKSFIKHGSNNSNINAHYEKRRTNRYVSSSSNSSDSSTSNSSDSSSFSTSSDDSDSDSDSDMDSDSYDKKRKIKRPFPNDKKKELSNKFLEANRRKTLPQYKPVNENRKSLQIRDDVMGMHADFLGSMDSPRNTKNKHRASVSAWPEWKGQVIQQAILTQHKTNVPINKKELIAEGYDAKI | binds | binds
4 | PfBDP7 (protein, UniProt Q8IIC0 1-525) MADNNLDKNESDSSCINASDEQKSSEEKDNLGEASVVSNVNENNSSFFTKCFSKIVNFGNNTQENNIPVAHEENNNEDREYNTNESNCNRYDDEEDKKVENFDNNNINNNYLKGDGEKNIHEGGDVHTDFNNEEMINAISNYNKNELNLNRGEIYLNDNEYSFISYIILSSEFRFYPIEETKKKKRRDTLKIDDTITITDTKRIKFDNNNNNNNKIEIRKKENVTDIDADKGSNNHMNEKQVVNNSEDILKKEDEEEENLKKEGGDLLIKGNNVDKVLLDDIDIEKVRSYDKIMDAEERDKLELFDEILIHIKRNFYEKILNIETNFKNLENQIEDNHSFHFRCIIEKLKNRKYDNILYIYNDIYLYHNNLLFLSKPSSYTWMKLHELSTQITNTISDIHHKKYMQKPNRKLYHIDKEEKEKKEKKKEVLKDHEKMEYCINEEEKLAFQLLLSKLNQDTHFELFRKFKNKAVWKTLEGGEIELDDKLTRADVFREMYNWCKFQLEMKNKQSELSDSESDSSKDSY | binds | binds
